These results are taken from PubChem BioAssay AID2685 (National Center for Advancing Translational Sciences (NCATS), 2010).

The nature of this experiment: qHTS Assay for Lipid Storage Modulators in Drosophila S3 Cells.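 On cell number change: cells counted by Cell Tracker Red CMTPX staining in the red channel.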 Particulars: BODIPY lipid droplet fluorescence, 18-24 h; for cell number change: measured here: cell count max response, cells fed with added oleic acid. Summed up: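 Drosophila S3 cells got compounds at several concentrations plus oleic acid (400 uM solution). Laser-scanning cytometry with 488 nm excitation read lipid droplets at 500-530 nm and cells at 575-640 nm. Percent activity was relative to 20 uM Triacsin C.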

The mark [1] stands for this setting: measured here: lipid fluorescence (Fed channel) AC50, cells fed with added oleic acid.
Setting [2] is: measured here: cell number channel AC50, cells fed with added oleic acid.

The other results are listed elsewhere or left out. The main result of the screen is listed elsewhere. These columns were measured beside it and carry no call. The list favours compounds with an active or inconclusive main result. Potencies come from curve fits of mixed quality, noted in brackets.

As for `CCn1c(SCC(=O)OC)nc2sc3c(c2c1=O)CC(C)(C)OC3`, the cell number change came out at 10.5%.
For `COc1cc(OC)cc(-c2c(-c3cccs3)c3cc(-c4ccc(SC)cc4)ccc3n2C)c1`, the cell number change was -24.1%. Also, under setting [1], the AC50 (usually the concentration at which the activity in the assay is half-maximal) was 0.92 µM [falling, partial curve, poor fit].
As for `Cc1c(CCC(=O)NCCCn2ccnc2)c(=O)oc2cc3oc4c(c3cc12)CCCC4`, the cell number change came to 9.66%. The half-maximal activity concentration (AC50) under setting [1] was 29.1 µM [falling, single point].
For the compound `Cc1cc(C(=O)NCC(C)(C)N2CCOCC2)c(C)o1`, the cell number change is -5.22%.
`c1cc(-c2ccncc2)ccn1`: the cell number change worked out at 7.4%. For the same compound, the AC50 under setting [1] is 29.1 µM [rising, single point].
`CC(=O)c1cccc(OCC(=O)Nc2ccccc2N2CCOCC2)c1`: the cell number change is -37%. Besides, under setting [2], the AC50 is 14.6 µM [falling, single point]. For the same compound, the AC50 under setting [1] was 0.58 µM [rising, full curve].
As for `NC(=O)C1CC(=O)N(c2ccc(OCC(=O)NCc3ccccc3)cc2)C1` (stereo not drawn), the cell number change came to 11.7%.
As for `CCCOc1ccc(-c2nc(C#N)c(N3CCN(C)CC3)o2)cc1`, the cell number change is -0.329%. Besides, under setting [1], the AC50 is 0.461 µM [falling, single point].
As for `CN1C(C(=O)Nc2ccc(OC(F)(F)F)cc2)=CC(c2cccs2)=NS1(=O)=O`, the cell number change worked out at 19.1%.
Still for that read-out and setting: the result for `O=C(c1cccc(S(=O)(=O)Nc2ccccc2Cl)c1)N1CCCCCC1` reads 19.7%.
With `COc1ccccc1/C=C/C(=O)OCC(=O)c1c(N)n(C)c(=O)n(C)c1=O`, the cell number change amounted to 10.8%. Under setting [1], the AC50 was 0.461 µM [rising, single point].
For `Cc1cc(NS(=O)(=O)c2ccc(NC(=S)NC(=O)c3ccc(Cl)cc3Cl)cc2)no1`, the cell number change was -4.1%. Further, under setting [1], the concentration at half-maximal activity (AC50) is 0.164 µM [falling, full curve, poor fit].
`COc1ccc2nc(Nc3nc(-c4cc5ccccc5oc4=O)cs3)sc2c1`: the cell number change was 18.1%.
Consider `CC1Cc2nc(SCC(=O)N3CCOCC3)n(-c3ccccc3)c(=O)c2S1` (stereo not drawn), for which the cell number change worked out at 31.4%. The concentration at half-maximal activity (AC50) under setting [2] was 29.1 µM [rising, single point]. Further, under setting [1], the AC50 was 0.461 µM [falling, full curve].
With `Cc1cc(OCC(=O)NCc2ccccn2)cc(C)c1Br`, the cell number change amounted to 38.4%. Further, the AC50 under setting [2] was 6.51 µM [rising, partial curve, poor fit]. Further, under setting [1], the AC50 is 11.6 µM [rising, partial curve].
Consider `CC1CCN(c2ccc(NC(=O)Cn3c(=O)oc4ccccc43)cc2)CC1`, for which the cell number change was -20.3%. Besides, under setting [1], the AC50 was 14.6 µM [falling, partial curve, poor fit].
Take `CCOc1ccc(CCNC(=O)c2c(C)noc2C)cc1OCC`: the cell number change was 13.9%. Moreover, the AC50 under setting [1] was 29.1 µM [rising, single point].
As to `O=C(Nc1ccc2[nH]c(=O)[nH]c2c1)C(F)(F)F`, the cell number change was 13.2%. For the same compound, under setting [1], the half-maximal activity concentration (AC50) is 6.51 µM [rising, partial curve, poor fit].
In the case of `COc1ccccc1OCC(=O)n1cc(C(=O)c2cc(Cl)cc(Cl)c2O)cn1`, the cell number change was -6.19%. The half-maximal activity concentration (AC50) under setting [1] is 2.06 µM [falling, partial curve, poor fit].
On to `CC(C)Oc1cc(O)c2c(=O)c(-c3ccc(O)cc3)coc2c1`, for which the cell number change is -0.98%.
On to `CCOC(=O)N1CCN(C(=O)c2cccc(NC3=NC4CS(=O)(=O)CC4S3)c2)CC1` (stereo not drawn), for which the cell number change was -12.2%. In addition, the AC50 under setting [1] was 29.1 µM [falling, single point].
With `O=C(c1cccc(Oc2ccc([N+](=O)[O-])cc2Cl)c1)N1CCCCC1`, the cell number change stood at 24.6%. Also, the AC50 under setting [1] was 6.51 µM [rising, partial curve, poor fit].
As for `O=C(C1COc2ccccc2O1)N1CCN(Cc2ccccc2)CC1` (stereo not drawn), the cell number change is -4.01%.
For the compound `COc1ccc2c(CSc3nc4nc(C)cc(C)n4n3)cc(=O)oc2c1`, the cell number change was -2.35%. Also, the AC50 under setting [1] is 2.06 µM [rising, partial curve].
Turning to `O=C(NCc1ccccc1)Nc1cccn(Cc2ccccc2Cl)c1=O`, the cell number change is -37.8%. Under setting [2], the half-maximal activity concentration (AC50) is 29.1 µM [falling, single point].
On to `CCOC(=O)c1ccc(NC(=S)NC(=O)c2nn(CC)cc2Br)cc1`, for which the cell number change worked out at 16.2%. Moreover, under setting [1], the AC50 is 29.1 µM [rising, single point].
For the compound `Cc1cccc(N2C(=O)/C(=C\c3ccc(OC(F)F)cc3)c3ccccc3C2=O)c1`, the cell number change is -12.4%. Also, under setting [1], the AC50 is 11.6 µM [falling, single point].
On to `O=C(c1ccc(S(=O)(=O)N2CCCC2)cc1)N1CCCCC1`, for which the AC50 under setting [1] was 6.51 µM [falling, single point].
The same measure, in the same setting: the result for `COc1ccc(C(O)(C(=O)NNc2ccc(C)cc2)c2cccs2)cc1` (stereo not drawn) reads 29.1 µM [falling, single point].
Turning to `CCNc1c(NS(=O)(=O)c2ccc([N+](=O)[O-])cc2)c(=O)oc2ccccc12`, the cell number change is -7.14%. The AC50 under setting [1] is 6.51 µM [rising, single point].
On to `O=C1CC(SCc2nc3ccccc3[nH]2)C(=O)N1c1ccc(Cl)cc1` (stereo not drawn), for which the cell number change is 9.23%. Moreover, the AC50 under setting [1] is 1.64 µM [falling, partial curve, poor fit].
Consider `Cc1ccc(Cl)c(NC(=O)COC(=O)c2nn(C)c(=O)c3ccccc23)c1Cl`, for which the cell number change was found to be 15.1%. The AC50 under setting [1] was 8.2 µM [rising, full curve, poor fit].
Consider `CN1CCN(Cc2cccc3ncccc23)CC1CCO` (stereo not drawn), for which the cell number change is -10.7%.
As to `O=C(COC(=O)C1CCCCC1)Nc1cccc(Br)c1`, the cell number change amounted to 0.842%. In addition, the AC50 under setting [1] was 18.4 µM [falling, single point].
For the compound `CCOC(=O)CC(=O)CSc1nc(C)nc2c1oc1ccccc12`, the cell number change worked out at 12.8%. Also, under setting [2], the half-maximal activity concentration (AC50) is 1.3 µM [rising, partial curve].
As for `O=C(CNS(=O)(=O)c1ccc(Br)s1)NCCc1ccc(Cl)cc1`, under setting [1], the concentration at half-maximal activity (AC50) is 6.51 µM [rising, single point].
Turning to `COc1ccc(S(=O)(=O)N(C)C)cc1NC(=O)c1ccc(OCC(=O)N2CCOCC2)c(OC)c1`, the cell number change worked out at 21.4%. Besides, the concentration at half-maximal activity (AC50) under setting [1] is 29.1 µM [rising, single point].
As for `COc1ccc(NC(=S)NCc2ccco2)c(OC)c1`, the AC50 under setting [1] is 6.51 µM [falling, single point].
With `Cc1cc2ccccc2n2c(SCC(=O)NCC3CCCO3)nnc12` (stereo not drawn), the cell number change worked out at 22.6%. The half-maximal activity concentration (AC50) under setting [1] is 3.66 µM [falling, single point].
On to `CCc1ccccc1NC(=O)NCc1ccccn1`, for which the cell number change amounted to 14.4%. For the same compound, under setting [1], the AC50 was 3.26 µM [rising, single point].
Turning to `OC(CNCCC(c1ccccc1)c1ccccc1)COc1ccccc1` (stereo not drawn), the cell number change was -121%. The AC50 under setting [2] was 29.1 µM [falling, single point].
Take `CN(C)c1ccc(NC(=O)CSc2nc3c(c(=O)[nH]2)CCCC3)cc1`: the half-maximal activity concentration (AC50) under setting [1] is 0.0517 µM [rising, full curve, poor fit].
